{
  "sequences": {"note": "The chains behind the UniProt entries cited, without tags or fusion partners.", "UniProt Q8IWV8": "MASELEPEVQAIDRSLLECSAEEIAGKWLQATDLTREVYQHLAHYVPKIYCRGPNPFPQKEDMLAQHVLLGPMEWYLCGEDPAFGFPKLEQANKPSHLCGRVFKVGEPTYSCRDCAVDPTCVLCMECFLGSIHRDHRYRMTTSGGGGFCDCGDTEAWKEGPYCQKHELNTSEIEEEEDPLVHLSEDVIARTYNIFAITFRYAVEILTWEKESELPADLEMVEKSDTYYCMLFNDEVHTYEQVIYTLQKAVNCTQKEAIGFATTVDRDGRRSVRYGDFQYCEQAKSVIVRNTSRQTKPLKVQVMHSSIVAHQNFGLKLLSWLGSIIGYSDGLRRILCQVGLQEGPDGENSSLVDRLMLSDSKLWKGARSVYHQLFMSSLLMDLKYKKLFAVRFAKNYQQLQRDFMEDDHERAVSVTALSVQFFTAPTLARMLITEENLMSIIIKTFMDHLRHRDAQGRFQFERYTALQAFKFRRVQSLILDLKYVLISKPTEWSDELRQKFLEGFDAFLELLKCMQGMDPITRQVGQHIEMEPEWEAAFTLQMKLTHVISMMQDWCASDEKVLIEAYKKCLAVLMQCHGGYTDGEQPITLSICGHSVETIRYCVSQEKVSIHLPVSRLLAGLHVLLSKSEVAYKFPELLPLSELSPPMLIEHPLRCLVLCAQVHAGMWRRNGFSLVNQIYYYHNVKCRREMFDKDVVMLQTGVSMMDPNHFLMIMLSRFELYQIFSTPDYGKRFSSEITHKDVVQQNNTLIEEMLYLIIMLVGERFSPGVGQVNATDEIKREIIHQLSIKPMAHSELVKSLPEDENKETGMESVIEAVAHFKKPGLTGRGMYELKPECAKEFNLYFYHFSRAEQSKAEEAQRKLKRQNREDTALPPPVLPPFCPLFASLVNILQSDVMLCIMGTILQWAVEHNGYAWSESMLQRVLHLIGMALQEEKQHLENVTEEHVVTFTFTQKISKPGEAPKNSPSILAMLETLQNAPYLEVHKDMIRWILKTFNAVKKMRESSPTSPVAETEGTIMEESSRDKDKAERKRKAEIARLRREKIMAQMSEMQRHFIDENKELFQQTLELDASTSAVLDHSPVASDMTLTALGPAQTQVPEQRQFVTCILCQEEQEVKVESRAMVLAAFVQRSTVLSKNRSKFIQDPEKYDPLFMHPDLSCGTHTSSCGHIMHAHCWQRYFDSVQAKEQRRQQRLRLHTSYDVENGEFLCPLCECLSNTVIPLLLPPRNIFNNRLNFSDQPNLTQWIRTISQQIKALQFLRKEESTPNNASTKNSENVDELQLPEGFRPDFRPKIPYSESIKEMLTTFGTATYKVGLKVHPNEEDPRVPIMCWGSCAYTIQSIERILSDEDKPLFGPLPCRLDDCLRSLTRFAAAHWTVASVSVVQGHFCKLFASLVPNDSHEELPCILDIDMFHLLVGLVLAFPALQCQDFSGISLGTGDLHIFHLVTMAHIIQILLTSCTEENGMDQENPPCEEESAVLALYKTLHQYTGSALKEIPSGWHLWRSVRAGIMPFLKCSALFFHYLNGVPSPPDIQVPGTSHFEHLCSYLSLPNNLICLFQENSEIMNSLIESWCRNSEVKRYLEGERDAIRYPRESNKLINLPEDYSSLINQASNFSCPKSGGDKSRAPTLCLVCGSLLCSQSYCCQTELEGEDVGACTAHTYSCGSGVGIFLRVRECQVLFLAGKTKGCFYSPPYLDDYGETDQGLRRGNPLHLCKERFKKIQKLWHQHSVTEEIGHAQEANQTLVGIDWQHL"},
  "source": "paper PMC10789758",
  "molecular_target": "T1, Myc-DUSP22 (UniProt Q9NRW4)",
  "T1 sequence": "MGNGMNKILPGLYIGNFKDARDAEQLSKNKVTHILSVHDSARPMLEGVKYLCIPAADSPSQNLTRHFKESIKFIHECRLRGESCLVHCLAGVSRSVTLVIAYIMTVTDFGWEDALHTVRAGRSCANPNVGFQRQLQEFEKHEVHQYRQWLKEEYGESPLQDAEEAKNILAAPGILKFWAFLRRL",
  "experiment": "affinity purification with mass spectrometry; Myc-DUSP22 immunocomplexes precipitated with anti-Myc agarose beads from lysates of HEK293T cells transfected with vector or Myc-DUSP22; gel bands, trypsin, LC-MS/MS",
  "note": "Results are given in words; binding and its absence hold for the method and conditions named. Binding seen in cells or lysates may run through a third protein. A yes stands for co-enrichment or nearness to the bait. Other partners may have been found. Sequences can lack the tags named with a protein.",
  "data": [
    {"substance": "endogenous UBR2 protein (HEK293T) (from UniProt Q8IWV8 1-1755)", "values": [
      {"measurement": "binding", "result": "binds"}
    ]}
  ]
}
